PubChem BioAssay AID1259303 – Sanger Institute – 2017
Screen: 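Follow-up kinase siRNA test for drug synergy in colorectal cancer cells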 (follow-up of hits). Cells: human COLO320HSR colorectal cancer cells. Reagent: single siRNA against human genes. Treatment: anchor drug BYL719 (1 µM), cetuximab (5 µg/ml) or trametinib (10 nM), or DMSO vehicle alone. Measurement: 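Replicate-averaged viability relative to non-targeting pool 2 siRNA under DMSO; synergy scores against each drug alone for BYL719 1 µM, cetuximab 5 µg/ml or trametinib 10 nM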. Scale: synergy score with BYL719: higher = stronger combined killing with BYL719; synergy score with cetuximab: higher = stronger combined killing with cetuximab; synergy score with trametinib: higher = stronger combined killing with trametinib. Hit rule: 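a knock-down counts as active when any of the three drug synergy scores exceeds 0.10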. Calls: active = synergy with at least one drug; inactive = no synergy found.
The deposit covers 160 reagents; below is a random part of them. Over the whole deposit, 11 (6.9%) got an active call. 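Viability capped at 1; how the synergy score is calculated is not stated; four separate siRNAs target each gene.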 Unmarked entries are inactive. The numbers tell different reagents against one gene apart. Not all columns of the deposit are shown. Reagent sequences are not shown. Not given: the amount of reagent, the time to read-out.

| gene | siRNA no. | synergy score with BYL719 | synergy score with cetuximab | synergy score with trametinib |
| --- | --- | --- | --- | --- |
| PRAG1 | 1 | 0.0638 | 0.0387 | -0.288 |
| PRAG1 | 2 | 0.0962 | 0.0124 | -0.031 |
| PRAG1 | 3 | -0.0578 | -0.198 | -0.182 |
| PRAG1 | 4 | 0.11 (active) | -0.0958 | -0.2 |
| AK2 | 1 | -0.23 | -0.143 | -0.233 |
| AK2 | 2 | -0.301 | 0 | 0 |
| AK2 | 3 | 0.00972 | -0.118 | -0.118 |
| AK2 | 4 | -0.303 | 0 | 0 |
| GTF2H1 | 1 | -0.123 | 0 | 0 |
| GTF2H1 | 2 | -0.172 | -0.00168 | -0.00168 |
| GTF2H1 | 3 | -0.168 | 0.00148 | -0.046 |
| GTF2H1 | 4 | 0.0121 | 0.0711 | 0.0458 |
| RPS6KA4 | 1 | -0.143 | -0.165 | -0.169 |
| RPS6KA4 | 2 | -0.0103 | -0.0846 | -0.11 |
| RPS6KA4 | 3 | -0.0733 | -0.0416 | -0.247 |
| RPS6KA4 | 4 | 0.0144 | -0.024 | -0.102 |
| IKBKB | 1 | -0.0644 | 0.099 | -0.0288 |
| IKBKB | 2 | -0.0789 | -0.0371 | -0.147 |
| IKBKB | 3 | -0.0983 | 0.0605 | -0.028 |
| IKBKB | 4 | -0.0808 | 0.0506 | -0.0253 |
| NR2F2 | 1 | -0.0908 | -0.0475 | -0.0599 |
| NR2F2 | 2 | -0.147 | -0.132 | -0.229 |
| NR2F2 | 3 | -0.357 | -0.245 | -0.259 |
| NR2F2 | 4 | -0.163 | -0.133 | -0.149 |
| COASY | 1 | -0.183 | 0 | 0 |
| COASY | 2 | 0.0701 | -0.0906 | 0.0297 |
| COASY | 3 | -0.109 | 0.000339 | -0.176 |
| COASY | 4 | 0.0723 | 0.0112 | -0.0638 |
| MARK3 | 1 | -0.137 | -0.14 | -0.14 |
| MARK3 | 2 | -0.0538 | 0 | 0 |
| MARK3 | 3 | -0.376 | -0.109 | -0.172 |
| MARK3 | 4 | -0.198 | -0.138 | -0.218 |
| PINK1 | 1 | -0.371 | -0.174 | -0.28 |
| PINK1 | 2 | -0.128 | 0.0805 | -0.0506 |
| PINK1 | 3 | -0.107 | -0.000579 | -0.237 |
| PINK1 | 4 | -0.0287 | -0.124 | -0.0901 |
| GRK5 | 1 | -0.136 | 0 | 0 |
| GRK5 | 2 | -0.151 | 0 | 0 |
| GRK5 | 3 | -0.236 | -0.143 | -0.158 |
| GRK5 | 4 | -0.242 | 0.035 | -0.1 |

Next part, starting with the last 3 of the part before.
| gene | siRNA no. | synergy score with BYL719 | synergy score with cetuximab | synergy score with trametinib |
| --- | --- | --- | --- | --- |
| GRK5 | 2 | -0.151 | 0 | 0 |
| GRK5 | 3 | -0.236 | -0.143 | -0.158 |
| GRK5 | 4 | -0.242 | 0.035 | -0.1 |
| MAPKAPK2 | 1 | -0.12 | -0.103 | -0.103 |
| MAPKAPK2 | 2 | -0.0297 | -0.174 | -0.187 |
| MAPKAPK2 | 3 | -0.104 | -0.0385 | -0.151 |
| MAPKAPK2 | 4 | -0.00163 | -0.159 | -0.136 |
| CHD4 | 1 | -0.139 | -0.0564 | -0.178 |
| CHD4 | 2 | -0.327 | 0.0311 | -0.299 |
| CHD4 | 3 | -0.0534 | 0.093 | -0.127 |
| CHD4 | 4 | -0.216 | -0.0748 | -0.228 |
| SYNCRIP | 1 | -0.0428 | 0.0458 | 0 |
| SYNCRIP | 2 | -0.0848 | -0.0224 | -0.031 |
| SYNCRIP | 3 | -0.167 | -0.0363 | -0.189 |
| SYNCRIP | 4 | -0.102 | -0.104 | -0.102 |
| BRAF | 1 | -0.0412 (active) | 0.14 | -0.0352 |
| BRAF | 2 | -0.0484 | 0.00985 | -0.019 |
| BRAF | 3 | -0.0159 (active) | 0.236 | 0 |
| BRAF | 4 | -0.137 | 0 | 0 |
| HUNK | 1 | -0.186 | -0.17 | -0.22 |
| HUNK | 2 | -0.0858 | -0.0943 | -0.208 |
| HUNK | 3 | 0.0691 | 0 | 0 |
| HUNK | 4 | -0.0852 | 0.0473 | -0.115 |
